This is an account of results in article PMC13534476, “The Arabidopsis SPFH protein HIR2 modulates receptor signaling and plasma membrane organization” (The EMBO Journal, 2026).

The chains behind the UniProt entries cited, without tags or fusion partners. Where a name states a change or a piece, a line headed by the entry shows the natural chain unless it says otherwise. Residues count along the entry.
UniProt Q9SRH6: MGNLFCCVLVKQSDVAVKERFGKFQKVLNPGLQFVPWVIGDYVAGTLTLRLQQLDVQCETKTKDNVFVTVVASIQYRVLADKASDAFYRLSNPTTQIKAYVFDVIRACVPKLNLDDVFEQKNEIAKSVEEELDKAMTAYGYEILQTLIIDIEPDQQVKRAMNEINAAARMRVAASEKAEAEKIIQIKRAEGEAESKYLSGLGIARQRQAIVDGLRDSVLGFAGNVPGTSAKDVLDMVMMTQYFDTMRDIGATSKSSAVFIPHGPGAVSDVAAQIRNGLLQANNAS
UniProt O22476, residues 24-1196: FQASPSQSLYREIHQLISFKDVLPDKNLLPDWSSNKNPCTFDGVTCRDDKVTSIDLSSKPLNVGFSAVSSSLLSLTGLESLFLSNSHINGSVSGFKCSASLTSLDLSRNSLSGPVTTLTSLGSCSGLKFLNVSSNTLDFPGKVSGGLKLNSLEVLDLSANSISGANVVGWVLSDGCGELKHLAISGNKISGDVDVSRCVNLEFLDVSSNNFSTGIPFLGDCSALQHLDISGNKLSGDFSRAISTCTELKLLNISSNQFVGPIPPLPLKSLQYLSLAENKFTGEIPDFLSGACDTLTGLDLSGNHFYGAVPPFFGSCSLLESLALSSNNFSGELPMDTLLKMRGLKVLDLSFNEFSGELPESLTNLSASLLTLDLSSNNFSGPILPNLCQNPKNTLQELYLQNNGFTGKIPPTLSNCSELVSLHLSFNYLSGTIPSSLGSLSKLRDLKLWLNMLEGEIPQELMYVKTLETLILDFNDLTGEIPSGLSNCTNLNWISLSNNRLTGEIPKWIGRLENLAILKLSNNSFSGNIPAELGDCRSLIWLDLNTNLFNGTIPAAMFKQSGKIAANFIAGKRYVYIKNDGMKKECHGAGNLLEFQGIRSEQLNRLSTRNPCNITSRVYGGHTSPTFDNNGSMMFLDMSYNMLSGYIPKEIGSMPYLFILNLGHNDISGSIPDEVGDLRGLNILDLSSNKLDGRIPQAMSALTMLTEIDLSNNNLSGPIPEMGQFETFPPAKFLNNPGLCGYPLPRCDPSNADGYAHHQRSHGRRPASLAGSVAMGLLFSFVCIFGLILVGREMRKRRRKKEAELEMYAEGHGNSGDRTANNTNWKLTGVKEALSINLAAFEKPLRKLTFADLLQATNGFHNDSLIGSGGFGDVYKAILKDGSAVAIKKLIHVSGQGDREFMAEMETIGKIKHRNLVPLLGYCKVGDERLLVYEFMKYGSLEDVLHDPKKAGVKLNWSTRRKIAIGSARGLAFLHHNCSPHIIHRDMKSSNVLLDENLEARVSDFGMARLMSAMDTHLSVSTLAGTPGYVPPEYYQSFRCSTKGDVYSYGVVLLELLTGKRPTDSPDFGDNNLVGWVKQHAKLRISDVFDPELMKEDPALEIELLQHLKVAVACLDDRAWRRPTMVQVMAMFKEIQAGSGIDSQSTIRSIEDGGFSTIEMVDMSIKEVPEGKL

Results are given in words; binding and its absence hold for the method and conditions named. Binding can be weak; no strength is given. For some assays here: Sequences can lack the tags named with a protein. For some assays here: Binding seen in cells or lysates may run through a third protein.

Assay [1] deals with T1, BAK1-GFP (Arabidopsis thaliana) (UniProt Q94F62).
T1 sequence: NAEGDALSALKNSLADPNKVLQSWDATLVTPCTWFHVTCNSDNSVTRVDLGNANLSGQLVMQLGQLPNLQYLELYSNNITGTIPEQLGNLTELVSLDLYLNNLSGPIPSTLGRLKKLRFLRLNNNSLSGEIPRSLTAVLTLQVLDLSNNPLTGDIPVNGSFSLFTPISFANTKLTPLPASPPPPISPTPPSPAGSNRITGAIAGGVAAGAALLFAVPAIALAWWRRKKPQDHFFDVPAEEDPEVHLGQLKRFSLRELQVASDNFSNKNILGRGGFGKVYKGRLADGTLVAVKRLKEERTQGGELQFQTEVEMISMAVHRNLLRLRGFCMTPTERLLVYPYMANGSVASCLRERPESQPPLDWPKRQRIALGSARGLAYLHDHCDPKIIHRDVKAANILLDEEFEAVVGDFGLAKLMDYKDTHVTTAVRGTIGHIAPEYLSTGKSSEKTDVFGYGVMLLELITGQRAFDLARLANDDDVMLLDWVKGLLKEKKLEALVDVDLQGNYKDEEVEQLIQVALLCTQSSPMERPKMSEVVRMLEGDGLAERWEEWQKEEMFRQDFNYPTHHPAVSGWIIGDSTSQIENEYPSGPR
Briefly: co-IP; Arabidopsis Col-0 mesophyll protoplasts co-transfected with BAK1-GFP or BIR3-GFP and HIR2-HA; free GFP as negative control; GFP-trap beads.

Assay [2] addresses T2, BIR2-Cub-PLV (Arabidopsis thaliana) (UniProt Q9LSI9).
T2 sequence: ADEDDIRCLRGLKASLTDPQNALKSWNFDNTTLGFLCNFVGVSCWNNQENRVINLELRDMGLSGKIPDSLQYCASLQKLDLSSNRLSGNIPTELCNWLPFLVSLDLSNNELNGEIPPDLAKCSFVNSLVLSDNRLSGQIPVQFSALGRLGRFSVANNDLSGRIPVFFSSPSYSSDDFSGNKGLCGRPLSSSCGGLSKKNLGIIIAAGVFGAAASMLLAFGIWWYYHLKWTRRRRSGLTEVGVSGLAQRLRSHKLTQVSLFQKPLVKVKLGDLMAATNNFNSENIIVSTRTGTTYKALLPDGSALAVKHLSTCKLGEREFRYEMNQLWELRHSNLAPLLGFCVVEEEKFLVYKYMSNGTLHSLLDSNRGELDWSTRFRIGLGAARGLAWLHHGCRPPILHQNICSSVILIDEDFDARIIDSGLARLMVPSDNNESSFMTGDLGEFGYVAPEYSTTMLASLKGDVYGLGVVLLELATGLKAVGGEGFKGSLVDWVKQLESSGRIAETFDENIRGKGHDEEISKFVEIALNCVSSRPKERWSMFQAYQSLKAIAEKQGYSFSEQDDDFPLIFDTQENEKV
Briefly: two-hybrid; mating-based split-ubiquitin system (mbSUS) in yeast.

Assay [3] deals with HIR2-Cub-PLV (Arabidopsis thaliana) (UniProt Q9SRH6). The description is as above.

For “HIR2-HA (Arabidopsis protoplasts) (from UniProt Q9SRH6)”, the binding result in assay [1] was “binds”.

Consider HIR2-Nub-3xHA (from UniProt Q9SRH6), for which, in assay [2], the binding result is reported as “binds”.

Regarding “BRI1-Nub-3xHA (from UniProt O22476 24-1196) (receptor)”, the binding result in assay [3] is listed as “no binding”.

B1: CERK1 (split-ubiquitin fusion) (receptor, UniProt A8R7E6 24-617)
chain: KCRTSCPLALASYYLENGTTLSVINQNLNSSIAPYDQINFDPILRYNSNIKDKDRIQMGSRVLVPFPCECQPGDFLGHNFSYSVRQEDTYERVAISNYANLTTMESLQARNPFPATNIPLSATLNVLVNCSCGDESVSKDFGLFVTYPLRPEDSLSSIARSSGVSADILQRYNPGVNFNSGNGIVYVPGRDPNGAFPPFKSSKQDGVGAGVIAGIVIGVIVALLLILFIVYYAYRKNKSKGDSFSSSIPLSTKADHASSTSLQSGGLGGAGVSPGIAAISVDKSVEFSLEELAKATDNFNLSFKIGQGGFGAVYYAELRGEKAAIKKMDMEASKQFLAELKVLTRVHHVNLVRLIGYCVEGSLFLVYEYVENGNLGQHLHGSGREPLPWTKRVQIALDSARGLEYIHEHTVPVYVHRDIKSANILIDQKFRAKVADFGLTKLTEVGGSATRGAMGTFGYMAPETVYGEVSAKVDVYAFGVVLYELISAKGAVVKMTEAVGEFRGLVGVFEESFKETDKEEALRKIIDPRLGDSYPFDSVYKMAELGKACTQENAQLRPSMRYIVVALSTLFSSTGNWDVGNFQNEDLVSLMSGR
B1: in assay [3], the binding entry is given as “binds”.

B2: BAK1-Nub-3xHA (receptor, UniProt Q94F62 26-615)
chain: NAEGDALSALKNSLADPNKVLQSWDATLVTPCTWFHVTCNSDNSVTRVDLGNANLSGQLVMQLGQLPNLQYLELYSNNITGTIPEQLGNLTELVSLDLYLNNLSGPIPSTLGRLKKLRFLRLNNNSLSGEIPRSLTAVLTLQVLDLSNNPLTGDIPVNGSFSLFTPISFANTKLTPLPASPPPPISPTPPSPAGSNRITGAIAGGVAAGAALLFAVPAIALAWWRRKKPQDHFFDVPAEEDPEVHLGQLKRFSLRELQVASDNFSNKNILGRGGFGKVYKGRLADGTLVAVKRLKEERTQGGELQFQTEVEMISMAVHRNLLRLRGFCMTPTERLLVYPYMANGSVASCLRERPESQPPLDWPKRQRIALGSARGLAYLHDHCDPKIIHRDVKAANILLDEEFEAVVGDFGLAKLMDYKDTHVTTAVRGTIGHIAPEYLSTGKSSEKTDVFGYGVMLLELITGQRAFDLARLANDDDVMLLDWVKGLLKEKKLEALVDVDLQGNYKDEEVEQLIQVALLCTQSSPMERPKMSEVVRMLEGDGLAERWEEWQKEEMFRQDFNYPTHHPAVSGWIIGDSTSQIENEYPSGPR
Regarding B2, the binding entry in assay [3] is “binds”.
